These are yes or no findings as the source states them, for the method shown. In cells and extracts the contact can be indirect. Some entries that bind do so weakly or less than the wild type. Where a sequence is shown, tags or fusion partners need not be part of it.
Tests used:
EGFP-BBS1(WT) (human) [1] = biological target: T1, EGFP-BBS1(WT) (human) (UniProt Q8NFJ9); assay: co-IP; VIP assay and immunoblotting; EGFP-BBS1 construct and tRFP-ARL6∆N15(Q73L) co-expressed in HEK293T with tBFP-BBS9
T1 sequence: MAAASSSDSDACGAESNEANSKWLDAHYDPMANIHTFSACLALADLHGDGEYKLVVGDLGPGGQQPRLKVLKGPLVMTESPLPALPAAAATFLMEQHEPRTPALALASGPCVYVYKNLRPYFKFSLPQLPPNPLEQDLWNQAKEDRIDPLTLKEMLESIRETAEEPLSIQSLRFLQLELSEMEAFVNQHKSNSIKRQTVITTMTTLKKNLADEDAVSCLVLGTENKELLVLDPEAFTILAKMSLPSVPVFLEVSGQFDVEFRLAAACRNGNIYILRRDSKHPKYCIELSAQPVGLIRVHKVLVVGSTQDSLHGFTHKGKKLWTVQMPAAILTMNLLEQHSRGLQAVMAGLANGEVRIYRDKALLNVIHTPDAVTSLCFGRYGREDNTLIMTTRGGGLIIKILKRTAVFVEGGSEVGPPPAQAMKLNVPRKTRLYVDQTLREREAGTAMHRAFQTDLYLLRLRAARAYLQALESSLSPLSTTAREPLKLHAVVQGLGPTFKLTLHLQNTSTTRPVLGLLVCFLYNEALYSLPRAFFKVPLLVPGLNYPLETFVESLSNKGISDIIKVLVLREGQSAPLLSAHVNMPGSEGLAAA

EGFP-BBS1(WT) (human) [2] = biological target: T1, EGFP-BBS1(WT) (human); assay: co-IP; VIP assay and immunoblotting; EGFP-BBS1 construct and tRFP-ARL6∆N15(Q73L) co-expressed in HEK293T with tRFP-fused BBS9 (WT construct or CT region)
EGFP-BBS1(WT) (human) [3] = biological target: T1, EGFP-BBS1(WT) (human); assay: co-IP; VIP assay (confocal microscopy of beads); EGFP-BBS1 construct and tRFP-ARL6∆N15(Q73L) co-expressed in HEK293T with tBFP fusions of the other core subunits (BBS2/BBS7/BBS9)
EGFP-BBS1(WT) (human) [4] = biological target: T1, EGFP-BBS1(WT) (human); assay: co-IP; VIP assay (confocal microscopy of beads); EGFP-BBS1 construct and tRFP-ARL6∆N15(Q73L) co-expressed in HEK293T with tBFP fusions of all the other BBSome subunits (BBS2/BBS4/BBS5/BBS7/BBS8/BBS9/BBS18)
EGFP-BBS1(WT) (human) [5] = biological target: T1, EGFP-BBS1(WT) (human); assay: co-IP; VIP assay: lysates of HEK293T cells co-expressing an EGFP-fused and an mChe- or tRFP-fused protein (HMDEKN buffer: 10 mM HEPES pH 7.4, 5 mM MgSO4, 1 mM DTT, 0.5 mM EDTA, 25 mM KCl, 0.5% NP-40); EGFP fusion precipitated with GST-anti-GFP nanobody on glutathione-Sepharose beads; beads read by fluorescence microscopy and, for some pairs, by immunoblotting

binding (EGFP-BBS1(WT) (human) [1]): binds
binding (EGFP-BBS1(WT) (human) [2]): binds
binding (EGFP-BBS1(WT) (human) [3]): binds
binding (EGFP-BBS1(WT) (human) [4]): binds
binding (EGFP-BBS1(WT) (human) [5]): binds
B1: tRFP-fused ARL6∆N15(Q73L) (domain or fragment, UniProt Q9H0F7 16-186)
chain: KEVHVLCLGLDNSGKTTIINKLKPSNAQSQNILPTIGFSIEKFKSSSLSFTVFDMSGLGRYRNLWEHYYKEGQAIIFVIDSSDRLRMVVAKEELDTLLNHPDIKHRRIPILFFANKMDLRDAVTSVKVSQLLCLENIKDKPWHICASDAIKGEGLQEGVDWLQDQIQTVKT
